Measured values as given in paper PMC12494293, “Hexokinase 2 is an RNA-binding protein that regulates mRNA translation independently of glycolysis and induces melanoma cell proliferation”.

Molecular target: T1, HK2 Δ16 del1-16 (UniProt P52789)
T1 sequence (looked up): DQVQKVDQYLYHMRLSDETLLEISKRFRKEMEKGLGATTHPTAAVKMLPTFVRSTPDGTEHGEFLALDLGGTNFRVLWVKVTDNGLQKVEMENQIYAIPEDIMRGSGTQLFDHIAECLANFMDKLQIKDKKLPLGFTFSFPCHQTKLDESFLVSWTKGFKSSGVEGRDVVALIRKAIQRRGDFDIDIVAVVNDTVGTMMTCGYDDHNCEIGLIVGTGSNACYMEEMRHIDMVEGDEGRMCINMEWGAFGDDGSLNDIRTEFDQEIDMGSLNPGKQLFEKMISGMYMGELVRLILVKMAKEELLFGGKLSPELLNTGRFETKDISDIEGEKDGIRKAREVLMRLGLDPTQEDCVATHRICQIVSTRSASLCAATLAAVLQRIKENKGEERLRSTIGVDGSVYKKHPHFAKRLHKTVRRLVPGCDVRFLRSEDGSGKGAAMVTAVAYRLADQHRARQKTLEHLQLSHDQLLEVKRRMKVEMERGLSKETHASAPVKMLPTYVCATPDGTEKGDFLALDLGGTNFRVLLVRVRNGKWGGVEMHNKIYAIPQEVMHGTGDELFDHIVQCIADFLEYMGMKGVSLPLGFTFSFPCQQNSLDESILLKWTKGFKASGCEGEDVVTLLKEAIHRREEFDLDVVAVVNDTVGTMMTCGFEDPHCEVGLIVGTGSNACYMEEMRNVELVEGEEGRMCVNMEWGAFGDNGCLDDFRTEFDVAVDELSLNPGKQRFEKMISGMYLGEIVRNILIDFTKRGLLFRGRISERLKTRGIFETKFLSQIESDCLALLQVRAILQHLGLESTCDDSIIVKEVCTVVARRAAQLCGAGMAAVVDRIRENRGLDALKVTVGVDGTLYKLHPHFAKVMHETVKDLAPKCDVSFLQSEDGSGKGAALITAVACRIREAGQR
Assay: competition with a labelled probe
Details: 5 µM HK2 Δ16, 25 nM ATTO700 SOX10 SL, needs 500-1000-fold molar excess; 10 mM Tris-HCl pH 7.5, 1 mM EDTA, 100 mM KCl, 0.1 mM DTT, 5% glycerol, 0.01 mg/mL BSA, 0.125 mg/mL yeast tRNA, 20°C; gel at 4°C; recombinant protein; residues 17-917

“AGGACGAGCCCCUCUGAGGAGGAGAGGUCC [SOX10 mSL (unlabeled)]”: binds more weakly.

The comparison behind a weaker result is the experiment's own reference, which may not be listed here. Tags and fusion partners may be left off the protein sequences shown.
